Assay results reported in paper PMC6736568, “Discovery of Novel Anti-cryptosporidial Activities From Natural Products by in vitro High-Throughput Phenotypic Screening” (Frontiers in Microbiology, 2019).

Test system: Cryptosporidium parvum
Test: qRT-PCR assay of the growth of C. parvum in vitro in HCT-8 host cells (primary and secondary screening, EC50)
Assay type: cell-based
Conditions: primary screening at 10 uM

`NCCCC(=O)O` [gamma-AMINOBUTYRIC ACID] was tested. Which inhibition at 10 µM did it give?
The inhibition at 10 µM was -17.1%.
